Results as given in PMC11948038, “Evolutionary Pro‐To‐Thr Mutation in the Intrinsically Disordered Domain of ANP32 Family Members Modulates Their Target Binding Modes” (Advanced Science, 2025).
These are yes or no findings as the source states them, for the method shown. Some entries that bind do so weakly or less than the wild type.

The chains behind the UniProt entries cited, without tags or fusion partners. Residues count along the entry.
UniProt P99999, residues 2-105: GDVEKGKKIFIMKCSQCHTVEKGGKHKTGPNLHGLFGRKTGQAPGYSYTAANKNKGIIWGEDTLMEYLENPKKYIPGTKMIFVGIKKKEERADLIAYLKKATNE

Target: cytochrome c (UniProt P99999)
Assay: NMR titration; 15N-labeled Cc titrated with ANP32A_(230-249) or ANP32B_(232-251) peptide, up to 1:6 ratio (Cc:peptide); both purified

Row | binding | Binder
1 | binds | EEGGKGEKRKRETDDEGEDD [ANP32B_(232-251) peptide]
2 | binds | EEERGQKRKREPEDEGEDDD [ANP32A_(230-249) peptide]
